No constants are given. Whether binding was seen depends on the method and setting. Binding seen in cells or lysates may run through a third protein. Some results given as binding are weak or reduced against the parent protein; the word gives no strength.
Biological target: endogenous Sos1 (human, HeLa cells) (human (endogenous in HeLa)) (UniProt Q07889)
Assay: co-IP; immunoprecipitates with Sos1 antibodies (HeLa lysates) or anti-CSN3 (primary MEF lysates, untreated or tamoxifen-treated to deplete Sos1), Pierce Crosslink Immunoprecipitation Kit; immunoblot with anti-Sos1 or anti-CSN3

The chains behind the UniProt entries cited, without tags or fusion partners.
UniProt Q9UNS2: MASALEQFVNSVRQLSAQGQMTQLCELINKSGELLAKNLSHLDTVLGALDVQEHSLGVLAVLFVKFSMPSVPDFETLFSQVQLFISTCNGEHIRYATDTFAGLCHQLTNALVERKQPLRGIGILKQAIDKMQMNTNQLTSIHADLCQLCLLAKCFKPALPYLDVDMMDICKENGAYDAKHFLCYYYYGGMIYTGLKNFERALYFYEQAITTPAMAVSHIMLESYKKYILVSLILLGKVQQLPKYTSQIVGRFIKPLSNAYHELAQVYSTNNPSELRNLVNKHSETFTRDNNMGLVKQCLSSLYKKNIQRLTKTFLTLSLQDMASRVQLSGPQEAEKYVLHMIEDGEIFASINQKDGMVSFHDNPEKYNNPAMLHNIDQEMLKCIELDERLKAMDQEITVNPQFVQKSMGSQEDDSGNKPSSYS

Substance: cellular CSN3 (endogenous, HeLa cells) (from UniProt Q9UNS2 1-423)
- binding: binds
